This passage reports binding results from article PMC7343880.

The chains behind the UniProt entries cited, without tags or fusion partners. Residues count along the entry.
UniProt Q9NZQ7, residues 19-290: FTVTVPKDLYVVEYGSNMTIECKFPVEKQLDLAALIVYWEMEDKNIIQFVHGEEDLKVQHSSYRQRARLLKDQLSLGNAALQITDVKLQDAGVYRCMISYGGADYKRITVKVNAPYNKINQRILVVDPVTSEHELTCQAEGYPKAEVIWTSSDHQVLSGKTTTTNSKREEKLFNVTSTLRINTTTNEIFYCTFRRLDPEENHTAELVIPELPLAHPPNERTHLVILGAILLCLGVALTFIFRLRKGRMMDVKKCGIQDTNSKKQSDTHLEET

Results are given in words; binding and its absence hold for the method and conditions named. For some of these results: In cells and extracts the contact can be indirect. Some entries that bind do so weakly or less than the wild type. For some of these results: Sequences can lack the tags named with a protein.

The target in assay [1] is T1, PDS5B (purified from insect cells) (UniProt Q9NTI5).
T1 sequence: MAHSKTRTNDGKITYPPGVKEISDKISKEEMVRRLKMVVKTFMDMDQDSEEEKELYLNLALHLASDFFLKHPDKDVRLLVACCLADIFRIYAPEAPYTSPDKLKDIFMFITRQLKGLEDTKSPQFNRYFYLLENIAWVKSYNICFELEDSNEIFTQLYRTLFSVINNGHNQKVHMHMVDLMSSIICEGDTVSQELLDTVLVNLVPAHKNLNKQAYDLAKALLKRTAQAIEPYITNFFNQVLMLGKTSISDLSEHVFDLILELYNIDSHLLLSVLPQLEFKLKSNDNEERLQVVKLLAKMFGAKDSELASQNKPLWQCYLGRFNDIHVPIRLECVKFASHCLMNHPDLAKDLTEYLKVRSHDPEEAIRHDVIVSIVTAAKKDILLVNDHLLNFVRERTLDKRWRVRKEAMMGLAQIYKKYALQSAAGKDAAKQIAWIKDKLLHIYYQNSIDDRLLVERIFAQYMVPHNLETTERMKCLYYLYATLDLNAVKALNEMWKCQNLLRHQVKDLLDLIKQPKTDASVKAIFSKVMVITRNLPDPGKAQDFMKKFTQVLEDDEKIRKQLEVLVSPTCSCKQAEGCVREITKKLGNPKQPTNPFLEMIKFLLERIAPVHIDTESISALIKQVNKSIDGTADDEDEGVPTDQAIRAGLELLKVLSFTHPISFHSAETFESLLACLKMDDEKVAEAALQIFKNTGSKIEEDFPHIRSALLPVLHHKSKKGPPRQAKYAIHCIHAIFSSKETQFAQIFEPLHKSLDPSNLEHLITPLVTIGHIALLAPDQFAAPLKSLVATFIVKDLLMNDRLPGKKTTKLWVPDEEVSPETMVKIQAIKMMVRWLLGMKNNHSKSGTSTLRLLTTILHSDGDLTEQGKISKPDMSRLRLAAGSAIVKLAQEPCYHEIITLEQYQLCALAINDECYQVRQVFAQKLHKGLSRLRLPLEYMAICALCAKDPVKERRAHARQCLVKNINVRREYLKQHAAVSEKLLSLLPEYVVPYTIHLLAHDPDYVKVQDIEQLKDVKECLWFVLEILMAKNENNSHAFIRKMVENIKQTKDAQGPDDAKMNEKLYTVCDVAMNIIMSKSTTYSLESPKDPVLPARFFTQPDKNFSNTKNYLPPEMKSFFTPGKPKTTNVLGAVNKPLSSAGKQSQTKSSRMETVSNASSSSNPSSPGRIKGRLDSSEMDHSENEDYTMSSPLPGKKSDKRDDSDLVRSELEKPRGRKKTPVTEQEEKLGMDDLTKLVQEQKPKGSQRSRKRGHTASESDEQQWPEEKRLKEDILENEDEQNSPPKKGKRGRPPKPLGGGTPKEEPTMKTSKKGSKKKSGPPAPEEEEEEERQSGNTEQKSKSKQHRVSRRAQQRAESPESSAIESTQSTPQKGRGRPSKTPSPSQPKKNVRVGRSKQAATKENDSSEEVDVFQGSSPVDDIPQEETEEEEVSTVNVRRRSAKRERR
The experiment in a line: in vitro competition binding assay; PDS5B purified from insect cells, purified WAPL (1–30)-GST and PD-L1 (WT or AKE) purified from nuclear fraction of MDA-MB-231 cells (Fig. 3f, left); further details not given; both purified.

In assay [2] the target is T2, PDS5B (human (endogenous in MDA-MB-231)) (UniProt Q9NTI5).
T2 sequence: T1 sequence
The assay can be described thus: co-IP; PD-L1 WT, AIA or AKE plasmids transfected into cells; nuclear fractions incubated with protein A beads conjugated with anti-PDS5B antibody; blots (Fig. 3e).

Assay [3] deals with PD-L1 wild-type (WT), transfected, HA-tagged (UniProt Q9NZQ7). The experiment in a line: co-IP; PD-L1 WT, AIA or AKE plasmids transfected into cells; nuclear fractions incubated with HA-conjugated sepharose beads; blots (Fig. 3d).

As for “PD-L1 wildtype purified from nuclear fraction of MDA-MB-231 cells (from UniProt Q9NZQ7 19-290)”, the binding result in assay [1] is given as “binds”.

B1: WAPL (1–30)-GST (domain or fragment, UniProt Q7Z5K2 1-30)
chain: MTSRFGKTYSRKGGNGSSKFDEVFSNKRTT
B1: the binding entry in assay [1] is recorded as “binds”.

B2: Wing Apart-Like (WAPL) (protein, UniProt Q7Z5K2 1-1190)
chain: MTSRFGKTYSRKGGNGSSKFDEVFSNKRTTLSTKWGETTFMAKLGQKRPNFKPDIQEIPKKPKVEEESTGDPFGFDSDDESLPVSSKNLAQVKCSSYSESSEAAQLEEVTSVLEANSKISHVVVEDTVVSDKCFPLEDTLLGKEKSTNRIVEDDASISSCNKLITSDKVENFHEEHEKNSHHIHKNADDSTKKPNAETTVASEIKETNDTWNSQFGKRPESPSEISPIKGSVRTGLFEWDNDFEDIRSEDCILSLDSDPLLEMKDDDFKNRLENLNEAIEEDIVQSVLRPTNCRTYCRANKTKSSQGASNFDKLMDGTSQALAKANSESSKDGLNQAKKGGVSCGTSFRGTVGRTRDYTVLHPSCLSVCNVTIQDTMERSMDEFTASTPADLGEAGRLRKKADIATSKTTTRFRPSNTKSKKDVKLEFFGFEDHETGGDEGGSGSSNYKIKYFGFDDLSESEDDEDDDCQVERKTSKKRTKTAPSPSLQPPPESNDNSQDSQSGTNNAENLDFTEDLPGVPESVKKPINKQGDKSKENTRKIFSGPKRSPTKAVYNARHWNHPDSEELPGPPVVKPQSVTVRLSSKEPNQKDDGVFKAPAPPSKVIKTVTIPTQPYQDIVTALKCRREDKELYTVVQHVKHFNDVVEFGENQEFTDDIEYLLSGLKSTQPLNTRCLSVISLATKCAMPSFRMHLRAHGMVAMVFKTLDDSQHHQNLSLCTAALMYILSRDRLNMDLDRASLDLMIRLLELEQDASSAKLLNEKDMNKIKEKIRRLCETVHNKHLDLENITTGHLAMETLLSLTSKRAGDWFKEELRLLGGLDHIVDKVKECVDHLSRDEDEEKLVASLWGAERCLRVLESVTVHNPENQSYLIAYKDSQLIVSSAKALQHCEELIQQYNRAEDSICLADSKPLPHQNVTNHVGKAVEDCMRAIIGVLLNLTNDNEWGSTKTGEQDGLIGTALNCVLQVPKYLPQEQRFDIRVLGLGLLINLVEYSARNRHCLVNMETSCSFDSSICSGEGDDSLRIGGQVHAVQALVQLFLERERAAQLAESKTDELIKDAPTTQHDKSGEWQETSGEIQWVSTEKTDGTEEKHKKEEEDEELDLNKALQHAGKHMEDCIVASYTALLLGCLCQESPINVTTVREYLPEGDFSIMTEMLKKFLSFMNLTCAVGTTGQKSISRVIEYLEHC
As to B2, in assay [2], the binding result was “binds”.

B3: PDS5B (protein, UniProt Q9NTI5 1-1447)
chain: T1 sequence
Turning to B3, the binding entry in assay [3] is recorded as “binds”.
